Data source: PubChem BioAssay AID1508597 (Cure First, 2020)
In all, the deposit lists about 2,100 reagents; shown is a part drawn at random. 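Calls flag viability under 80% in either arm, not effects specific to rucaparib; the reference for percent is not stated.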 Not given: the 100% reference.

Aim: 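Knock-downs altering ovarian cancer cell survival with or without PARP inhibitor rucaparib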 (primary screen)
System: human ovarian carcinoma lines grown from tumours: OCI-P5x (papillary serous) and OCI-C5x (clear cell)
Reagent: siRNA pool against human genes, 1.25 pmol siRNA per well
Time to read-out: 72 h or 96 h, depending on the cell culture
Challenge: rucaparib 20 µM (about IC30) or vehicle, present until read-out
Read-out: 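Luminescent ATP-based viability assay read 72 or 96 h after transfection, depending on culture, given as normalised percent viability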
Direction: viability, normalised: higher = more viable cells remaining
Active means: 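a well counts as a hit if its normalised viability is under 80 percent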
Calls: active = viability under 80%; inactive = viability 80% or more

| gene knocked down | rucaparib or vehicle | cell line | technical replicate | viability, normalised (%) | Outcome |
| --- | --- | --- | --- | --- | --- |
| CRY2 (cryptochrome circadian regulator 2) | Rucaparib | OCI-C5x (clear cell) | 1 | 45.4 | active |
| CRY2 (cryptochrome circadian regulator 2) | Rucaparib | OCI-C5x (clear cell) | 2 | 55.5 | active |
| CRY2 (cryptochrome circadian regulator 2) | Rucaparib | OCI-C5x (clear cell) | 3 | 56.4 | active |
| CRY2 (cryptochrome circadian regulator 2) | Rucaparib | OCI-P5x (serous) | 1 | 91.8 | inactive |
| CRY2 (cryptochrome circadian regulator 2) | Rucaparib | OCI-P5x (serous) | 2 | 102 | inactive |
| CRY2 (cryptochrome circadian regulator 2) | Rucaparib | OCI-P5x (serous) | 3 | 86.9 | inactive |
| CRY2 (cryptochrome circadian regulator 2) | Vehicle | OCI-C5x (clear cell) | 1 | 44.1 | active |
| CRY2 (cryptochrome circadian regulator 2) | Vehicle | OCI-C5x (clear cell) | 2 | 58.1 | active |
| CRY2 (cryptochrome circadian regulator 2) | Vehicle | OCI-C5x (clear cell) | 3 | 51.3 | active |
| CRY2 (cryptochrome circadian regulator 2) | Vehicle | OCI-P5x (serous) | 1 | 71.3 | active |
| CRY2 (cryptochrome circadian regulator 2) | Vehicle | OCI-P5x (serous) | 2 | 55.5 | active |
| CRY2 (cryptochrome circadian regulator 2) | Vehicle | OCI-P5x (serous) | 3 | 73.3 | active |
| SUZ12 (SUZ12 polycomb repressive complex 2 subunit) | Rucaparib | OCI-C5x (clear cell) | 1 | 71.4 | active |
| SUZ12 (SUZ12 polycomb repressive complex 2 subunit) | Rucaparib | OCI-C5x (clear cell) | 2 | 65.9 | active |
| SUZ12 (SUZ12 polycomb repressive complex 2 subunit) | Rucaparib | OCI-C5x (clear cell) | 3 | 48.7 | active |
| SUZ12 (SUZ12 polycomb repressive complex 2 subunit) | Rucaparib | OCI-P5x (serous) | 1 | 80 | inactive |
| SUZ12 (SUZ12 polycomb repressive complex 2 subunit) | Rucaparib | OCI-P5x (serous) | 2 | 73 | active |
| SUZ12 (SUZ12 polycomb repressive complex 2 subunit) | Rucaparib | OCI-P5x (serous) | 3 | 72.3 | active |
| SUZ12 (SUZ12 polycomb repressive complex 2 subunit) | Vehicle | OCI-C5x (clear cell) | 1 | 64 | active |
| SUZ12 (SUZ12 polycomb repressive complex 2 subunit) | Vehicle | OCI-C5x (clear cell) | 2 | 84.3 | inactive |
| SUZ12 (SUZ12 polycomb repressive complex 2 subunit) | Vehicle | OCI-C5x (clear cell) | 3 | 53.9 | active |
| SUZ12 (SUZ12 polycomb repressive complex 2 subunit) | Vehicle | OCI-P5x (serous) | 1 | 86.7 | inactive |
| SUZ12 (SUZ12 polycomb repressive complex 2 subunit) | Vehicle | OCI-P5x (serous) | 2 | 96 | inactive |
| SUZ12 (SUZ12 polycomb repressive complex 2 subunit) | Vehicle | OCI-P5x (serous) | 3 | 90.2 | inactive |

Continued; the last 8 above are carried over.
| gene knocked down | rucaparib or vehicle | cell line | technical replicate | viability, normalised (%) | Outcome |
| --- | --- | --- | --- | --- | --- |
| SUZ12 (SUZ12 polycomb repressive complex 2 subunit) | Rucaparib | OCI-P5x (serous) | 2 | 73 | active |
| SUZ12 (SUZ12 polycomb repressive complex 2 subunit) | Rucaparib | OCI-P5x (serous) | 3 | 72.3 | active |
| SUZ12 (SUZ12 polycomb repressive complex 2 subunit) | Vehicle | OCI-C5x (clear cell) | 1 | 64 | active |
| SUZ12 (SUZ12 polycomb repressive complex 2 subunit) | Vehicle | OCI-C5x (clear cell) | 2 | 84.3 | inactive |
| SUZ12 (SUZ12 polycomb repressive complex 2 subunit) | Vehicle | OCI-C5x (clear cell) | 3 | 53.9 | active |
| SUZ12 (SUZ12 polycomb repressive complex 2 subunit) | Vehicle | OCI-P5x (serous) | 1 | 86.7 | inactive |
| SUZ12 (SUZ12 polycomb repressive complex 2 subunit) | Vehicle | OCI-P5x (serous) | 2 | 96 | inactive |
| SUZ12 (SUZ12 polycomb repressive complex 2 subunit) | Vehicle | OCI-P5x (serous) | 3 | 90.2 | inactive |
| JMJD8 (jumonji domain containing 8) | Rucaparib | OCI-C5x (clear cell) | 1 | 44.6 | active |
| JMJD8 (jumonji domain containing 8) | Rucaparib | OCI-C5x (clear cell) | 2 | 41.5 | active |
| JMJD8 (jumonji domain containing 8) | Rucaparib | OCI-C5x (clear cell) | 3 | 47.2 | active |
| JMJD8 (jumonji domain containing 8) | Rucaparib | OCI-P5x (serous) | 1 | 58.4 | active |
| JMJD8 (jumonji domain containing 8) | Rucaparib | OCI-P5x (serous) | 2 | 58.5 | active |
| JMJD8 (jumonji domain containing 8) | Rucaparib | OCI-P5x (serous) | 3 | 79.5 | active |
| JMJD8 (jumonji domain containing 8) | Vehicle | OCI-C5x (clear cell) | 1 | 53.3 | active |
| JMJD8 (jumonji domain containing 8) | Vehicle | OCI-C5x (clear cell) | 2 | 47.5 | active |
| JMJD8 (jumonji domain containing 8) | Vehicle | OCI-C5x (clear cell) | 3 | 64.4 | active |
| JMJD8 (jumonji domain containing 8) | Vehicle | OCI-P5x (serous) | 1 | 75.6 | active |
| JMJD8 (jumonji domain containing 8) | Vehicle | OCI-P5x (serous) | 2 | 78.2 | active |
| JMJD8 (jumonji domain containing 8) | Vehicle | OCI-P5x (serous) | 3 | 131 | inactive |
| UVRAG (UV radiation resistance associated) | Rucaparib | OCI-C5x (clear cell) | 1 | 63.3 | active |
| UVRAG (UV radiation resistance associated) | Rucaparib | OCI-C5x (clear cell) | 2 | 68.8 | active |
| UVRAG (UV radiation resistance associated) | Rucaparib | OCI-C5x (clear cell) | 3 | 63.1 | active |
| UVRAG (UV radiation resistance associated) | Rucaparib | OCI-P5x (serous) | 1 | 84.5 | inactive |
| UVRAG (UV radiation resistance associated) | Rucaparib | OCI-P5x (serous) | 2 | 79.2 | active |
| UVRAG (UV radiation resistance associated) | Rucaparib | OCI-P5x (serous) | 3 | 76.2 | active |
| UVRAG (UV radiation resistance associated) | Vehicle | OCI-C5x (clear cell) | 1 | 60.8 | active |
| UVRAG (UV radiation resistance associated) | Vehicle | OCI-C5x (clear cell) | 2 | 59.8 | active |
| UVRAG (UV radiation resistance associated) | Vehicle | OCI-C5x (clear cell) | 3 | 62.3 | active |
| UVRAG (UV radiation resistance associated) | Vehicle | OCI-P5x (serous) | 1 | 71.5 | active |
| UVRAG (UV radiation resistance associated) | Vehicle | OCI-P5x (serous) | 2 | 77.9 | active |
| UVRAG (UV radiation resistance associated) | Vehicle | OCI-P5x (serous) | 3 | 60.3 | active |
| CHMP2A (charged multivesicular body protein 2A) | Rucaparib | OCI-C5x (clear cell) | 1 | 39.6 | active |
| CHMP2A (charged multivesicular body protein 2A) | Rucaparib | OCI-C5x (clear cell) | 2 | 34.5 | active |
| CHMP2A (charged multivesicular body protein 2A) | Rucaparib | OCI-C5x (clear cell) | 3 | 32.5 | active |
| CHMP2A (charged multivesicular body protein 2A) | Rucaparib | OCI-P5x (serous) | 1 | 36.8 | active |
| CHMP2A (charged multivesicular body protein 2A) | Rucaparib | OCI-P5x (serous) | 2 | 39.9 | active |
| CHMP2A (charged multivesicular body protein 2A) | Rucaparib | OCI-P5x (serous) | 3 | 45.1 | active |
| CHMP2A (charged multivesicular body protein 2A) | Vehicle | OCI-C5x (clear cell) | 1 | 20.2 | active |
| CHMP2A (charged multivesicular body protein 2A) | Vehicle | OCI-C5x (clear cell) | 2 | 17.8 | active |
| CHMP2A (charged multivesicular body protein 2A) | Vehicle | OCI-C5x (clear cell) | 3 | 21.4 | active |
| CHMP2A (charged multivesicular body protein 2A) | Vehicle | OCI-P5x (serous) | 1 | 41.7 | active |
| CHMP2A (charged multivesicular body protein 2A) | Vehicle | OCI-P5x (serous) | 2 | 45.6 | active |
| CHMP2A (charged multivesicular body protein 2A) | Vehicle | OCI-P5x (serous) | 3 | 37.6 | active |
